Some of the results follow. Most entries show no effect beyond the scatter of the controls.
compound: CN[C@@H]1C[C@H]2O[C@@](C)([C@@H]1OC)n1c3ccccc3c3c4c(c5c6ccccc6n2c5c31)C(=O)NC4 [staurosporine]; experiment: log2 fold change of tryptic peptide abundance, ligand vs vehicle (limited proteolysis) (log2 ratio); higher = more trypsin-susceptible (destabilized); conditions: ligand concentration: 20 uM; sample: mouse liver crude lysate; replicate design: treated separately

The chains behind the UniProt entries cited, without tags or fusion partners. Where a name states a change or a piece, a line headed by the entry shows the natural chain unless it says otherwise.
UniProt Q9CXR1: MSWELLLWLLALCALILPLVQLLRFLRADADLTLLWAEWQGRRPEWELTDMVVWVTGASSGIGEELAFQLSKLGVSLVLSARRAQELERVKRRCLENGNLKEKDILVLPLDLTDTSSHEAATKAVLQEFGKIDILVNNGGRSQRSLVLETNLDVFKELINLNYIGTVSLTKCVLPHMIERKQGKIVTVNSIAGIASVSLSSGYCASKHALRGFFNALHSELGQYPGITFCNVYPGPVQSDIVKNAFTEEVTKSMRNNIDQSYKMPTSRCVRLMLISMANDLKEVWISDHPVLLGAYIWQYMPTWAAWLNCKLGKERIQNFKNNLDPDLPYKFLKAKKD
UniProt Q9CZI9: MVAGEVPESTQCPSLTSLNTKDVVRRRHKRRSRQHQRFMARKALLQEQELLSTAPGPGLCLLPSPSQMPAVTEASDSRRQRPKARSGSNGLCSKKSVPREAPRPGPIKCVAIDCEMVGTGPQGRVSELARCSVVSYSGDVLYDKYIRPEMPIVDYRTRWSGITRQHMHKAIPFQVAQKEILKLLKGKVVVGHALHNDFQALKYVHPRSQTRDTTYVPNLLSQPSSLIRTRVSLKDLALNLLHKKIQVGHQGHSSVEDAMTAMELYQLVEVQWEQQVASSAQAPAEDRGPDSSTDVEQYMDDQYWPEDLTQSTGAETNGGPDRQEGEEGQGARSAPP
UniProt Q9CY52: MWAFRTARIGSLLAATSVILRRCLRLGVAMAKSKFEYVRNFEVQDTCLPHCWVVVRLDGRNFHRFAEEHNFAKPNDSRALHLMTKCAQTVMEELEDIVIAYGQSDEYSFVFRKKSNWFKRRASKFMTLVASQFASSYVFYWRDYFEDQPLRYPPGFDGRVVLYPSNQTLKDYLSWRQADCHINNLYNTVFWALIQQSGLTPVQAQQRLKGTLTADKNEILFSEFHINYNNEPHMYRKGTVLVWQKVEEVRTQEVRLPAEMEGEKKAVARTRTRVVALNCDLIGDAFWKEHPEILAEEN
UniProt Q9D0C4: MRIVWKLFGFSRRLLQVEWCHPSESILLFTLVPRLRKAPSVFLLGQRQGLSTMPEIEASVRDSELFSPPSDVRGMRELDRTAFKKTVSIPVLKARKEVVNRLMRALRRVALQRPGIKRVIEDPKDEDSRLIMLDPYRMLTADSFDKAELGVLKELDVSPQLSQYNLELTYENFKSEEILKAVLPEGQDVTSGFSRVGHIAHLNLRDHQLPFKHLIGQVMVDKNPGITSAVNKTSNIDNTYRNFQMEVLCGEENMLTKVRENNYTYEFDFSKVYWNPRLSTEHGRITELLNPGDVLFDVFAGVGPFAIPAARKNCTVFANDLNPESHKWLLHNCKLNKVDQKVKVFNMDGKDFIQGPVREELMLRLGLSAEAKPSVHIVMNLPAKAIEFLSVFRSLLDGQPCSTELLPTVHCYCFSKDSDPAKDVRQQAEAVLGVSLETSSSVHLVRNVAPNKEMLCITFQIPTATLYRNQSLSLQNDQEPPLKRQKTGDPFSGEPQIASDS
UniProt Q9D0K0: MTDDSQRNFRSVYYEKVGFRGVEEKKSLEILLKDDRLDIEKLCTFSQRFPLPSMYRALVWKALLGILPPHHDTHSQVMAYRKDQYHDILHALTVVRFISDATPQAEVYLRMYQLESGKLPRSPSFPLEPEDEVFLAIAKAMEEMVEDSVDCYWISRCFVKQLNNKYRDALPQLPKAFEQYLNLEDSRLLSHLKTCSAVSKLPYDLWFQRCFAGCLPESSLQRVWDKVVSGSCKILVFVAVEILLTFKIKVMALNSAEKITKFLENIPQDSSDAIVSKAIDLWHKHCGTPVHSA
UniProt Q9CYI0: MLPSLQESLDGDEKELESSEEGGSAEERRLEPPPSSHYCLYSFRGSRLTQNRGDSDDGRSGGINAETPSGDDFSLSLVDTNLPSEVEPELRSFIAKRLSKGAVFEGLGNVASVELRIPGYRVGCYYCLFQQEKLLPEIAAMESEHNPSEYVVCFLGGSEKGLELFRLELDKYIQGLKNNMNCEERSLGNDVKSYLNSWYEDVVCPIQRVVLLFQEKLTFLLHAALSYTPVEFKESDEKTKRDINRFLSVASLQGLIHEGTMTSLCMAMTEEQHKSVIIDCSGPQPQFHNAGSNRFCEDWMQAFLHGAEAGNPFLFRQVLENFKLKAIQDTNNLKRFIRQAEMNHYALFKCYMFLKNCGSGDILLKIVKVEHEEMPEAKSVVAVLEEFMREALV
UniProt Q9CXK9: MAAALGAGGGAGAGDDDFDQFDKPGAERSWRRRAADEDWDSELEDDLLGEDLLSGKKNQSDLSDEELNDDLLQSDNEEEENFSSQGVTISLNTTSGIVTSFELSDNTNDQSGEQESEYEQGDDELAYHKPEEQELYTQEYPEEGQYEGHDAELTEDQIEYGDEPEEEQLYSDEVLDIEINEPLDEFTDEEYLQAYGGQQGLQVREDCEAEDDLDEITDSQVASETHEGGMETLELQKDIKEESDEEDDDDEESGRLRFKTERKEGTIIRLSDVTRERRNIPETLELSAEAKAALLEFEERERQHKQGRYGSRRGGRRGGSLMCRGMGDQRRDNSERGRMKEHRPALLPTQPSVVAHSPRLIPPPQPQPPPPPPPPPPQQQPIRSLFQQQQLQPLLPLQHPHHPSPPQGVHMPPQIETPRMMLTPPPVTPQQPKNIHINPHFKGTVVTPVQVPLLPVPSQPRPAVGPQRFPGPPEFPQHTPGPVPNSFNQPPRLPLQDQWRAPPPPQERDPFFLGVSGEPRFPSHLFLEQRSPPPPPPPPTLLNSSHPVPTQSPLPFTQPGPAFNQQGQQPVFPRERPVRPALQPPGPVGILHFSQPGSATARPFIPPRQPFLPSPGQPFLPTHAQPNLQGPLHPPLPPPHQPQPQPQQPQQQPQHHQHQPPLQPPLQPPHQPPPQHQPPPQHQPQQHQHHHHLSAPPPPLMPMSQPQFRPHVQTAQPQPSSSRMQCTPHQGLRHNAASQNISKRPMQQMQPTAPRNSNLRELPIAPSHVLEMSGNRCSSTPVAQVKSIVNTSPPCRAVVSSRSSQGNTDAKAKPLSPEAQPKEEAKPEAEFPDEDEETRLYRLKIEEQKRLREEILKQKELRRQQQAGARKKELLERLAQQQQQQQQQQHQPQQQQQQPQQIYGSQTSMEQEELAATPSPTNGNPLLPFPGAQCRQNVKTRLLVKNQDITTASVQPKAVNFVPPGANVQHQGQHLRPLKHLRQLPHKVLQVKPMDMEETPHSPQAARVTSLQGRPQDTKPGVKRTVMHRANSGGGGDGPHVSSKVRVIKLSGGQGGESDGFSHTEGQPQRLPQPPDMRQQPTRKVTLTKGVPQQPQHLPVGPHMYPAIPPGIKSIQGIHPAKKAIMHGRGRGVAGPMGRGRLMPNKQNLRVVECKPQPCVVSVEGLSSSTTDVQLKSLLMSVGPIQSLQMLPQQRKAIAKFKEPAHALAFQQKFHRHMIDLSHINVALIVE
UniProt Q9CRA9: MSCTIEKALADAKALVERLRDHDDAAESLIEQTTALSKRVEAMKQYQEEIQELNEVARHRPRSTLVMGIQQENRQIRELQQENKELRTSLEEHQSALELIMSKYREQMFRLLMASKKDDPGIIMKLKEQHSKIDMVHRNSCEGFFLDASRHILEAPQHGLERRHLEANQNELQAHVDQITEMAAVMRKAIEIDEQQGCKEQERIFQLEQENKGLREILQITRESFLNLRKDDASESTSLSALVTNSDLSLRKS
UniProt Q9D0D3: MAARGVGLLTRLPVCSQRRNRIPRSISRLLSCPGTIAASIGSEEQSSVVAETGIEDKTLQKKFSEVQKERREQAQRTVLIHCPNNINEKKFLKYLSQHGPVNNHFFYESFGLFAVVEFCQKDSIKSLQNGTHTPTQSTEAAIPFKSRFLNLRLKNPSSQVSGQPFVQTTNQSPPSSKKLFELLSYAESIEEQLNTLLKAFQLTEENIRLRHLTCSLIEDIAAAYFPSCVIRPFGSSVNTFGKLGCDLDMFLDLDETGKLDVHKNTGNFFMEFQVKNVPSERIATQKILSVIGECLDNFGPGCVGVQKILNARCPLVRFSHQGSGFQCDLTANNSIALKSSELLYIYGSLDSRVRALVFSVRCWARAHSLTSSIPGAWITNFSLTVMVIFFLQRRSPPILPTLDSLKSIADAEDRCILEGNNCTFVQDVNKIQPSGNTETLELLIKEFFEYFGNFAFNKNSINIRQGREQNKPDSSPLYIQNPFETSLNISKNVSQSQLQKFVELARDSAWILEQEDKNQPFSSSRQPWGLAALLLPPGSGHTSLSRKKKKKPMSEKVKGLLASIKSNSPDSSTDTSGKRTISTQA
UniProt Q9CRD2: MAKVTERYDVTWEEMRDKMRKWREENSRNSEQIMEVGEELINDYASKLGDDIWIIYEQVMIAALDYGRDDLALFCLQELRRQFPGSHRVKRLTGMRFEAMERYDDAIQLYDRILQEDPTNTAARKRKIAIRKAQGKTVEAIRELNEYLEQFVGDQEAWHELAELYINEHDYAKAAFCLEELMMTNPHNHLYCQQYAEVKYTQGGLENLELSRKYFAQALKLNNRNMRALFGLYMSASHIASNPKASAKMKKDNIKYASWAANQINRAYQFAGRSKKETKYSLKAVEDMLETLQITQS
UniProt Q9CS74: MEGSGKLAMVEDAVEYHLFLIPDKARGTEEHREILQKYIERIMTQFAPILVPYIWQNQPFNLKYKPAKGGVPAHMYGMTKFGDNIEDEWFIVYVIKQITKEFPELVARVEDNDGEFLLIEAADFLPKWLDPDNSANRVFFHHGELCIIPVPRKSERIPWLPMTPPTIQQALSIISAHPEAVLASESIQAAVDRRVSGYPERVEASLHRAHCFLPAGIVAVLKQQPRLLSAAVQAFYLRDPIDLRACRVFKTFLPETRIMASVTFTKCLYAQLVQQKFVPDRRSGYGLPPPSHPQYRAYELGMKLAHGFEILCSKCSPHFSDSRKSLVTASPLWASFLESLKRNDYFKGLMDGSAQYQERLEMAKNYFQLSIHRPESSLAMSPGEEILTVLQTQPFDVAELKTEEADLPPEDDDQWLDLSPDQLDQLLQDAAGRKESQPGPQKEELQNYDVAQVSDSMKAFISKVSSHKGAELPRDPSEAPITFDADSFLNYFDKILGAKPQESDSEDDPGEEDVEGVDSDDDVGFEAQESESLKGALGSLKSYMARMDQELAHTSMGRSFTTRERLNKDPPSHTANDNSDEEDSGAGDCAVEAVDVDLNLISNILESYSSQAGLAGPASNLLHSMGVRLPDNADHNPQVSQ
UniProt Q9CYK1: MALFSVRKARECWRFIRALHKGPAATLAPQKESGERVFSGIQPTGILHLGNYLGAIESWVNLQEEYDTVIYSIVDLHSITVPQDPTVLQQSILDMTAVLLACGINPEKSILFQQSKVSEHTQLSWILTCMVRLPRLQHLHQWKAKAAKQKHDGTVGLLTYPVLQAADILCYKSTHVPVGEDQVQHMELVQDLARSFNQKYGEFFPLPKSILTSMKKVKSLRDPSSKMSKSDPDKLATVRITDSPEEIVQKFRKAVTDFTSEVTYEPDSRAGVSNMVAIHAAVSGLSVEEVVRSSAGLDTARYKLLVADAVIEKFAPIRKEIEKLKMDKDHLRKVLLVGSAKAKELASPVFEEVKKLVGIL
UniProt Q9CYU6: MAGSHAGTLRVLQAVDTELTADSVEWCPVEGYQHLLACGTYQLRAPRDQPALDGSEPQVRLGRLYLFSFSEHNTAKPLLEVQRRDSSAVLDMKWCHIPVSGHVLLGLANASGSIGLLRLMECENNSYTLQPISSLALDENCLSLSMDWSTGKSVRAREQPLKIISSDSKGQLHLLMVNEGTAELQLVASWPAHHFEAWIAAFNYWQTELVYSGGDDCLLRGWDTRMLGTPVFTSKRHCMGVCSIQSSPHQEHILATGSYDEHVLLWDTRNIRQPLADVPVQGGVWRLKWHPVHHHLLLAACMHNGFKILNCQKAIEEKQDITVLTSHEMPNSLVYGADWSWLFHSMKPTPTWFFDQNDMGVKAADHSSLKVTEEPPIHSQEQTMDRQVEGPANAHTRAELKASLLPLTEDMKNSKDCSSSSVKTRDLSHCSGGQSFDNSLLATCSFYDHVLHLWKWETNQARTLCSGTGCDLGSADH
UniProt Q9CZ91: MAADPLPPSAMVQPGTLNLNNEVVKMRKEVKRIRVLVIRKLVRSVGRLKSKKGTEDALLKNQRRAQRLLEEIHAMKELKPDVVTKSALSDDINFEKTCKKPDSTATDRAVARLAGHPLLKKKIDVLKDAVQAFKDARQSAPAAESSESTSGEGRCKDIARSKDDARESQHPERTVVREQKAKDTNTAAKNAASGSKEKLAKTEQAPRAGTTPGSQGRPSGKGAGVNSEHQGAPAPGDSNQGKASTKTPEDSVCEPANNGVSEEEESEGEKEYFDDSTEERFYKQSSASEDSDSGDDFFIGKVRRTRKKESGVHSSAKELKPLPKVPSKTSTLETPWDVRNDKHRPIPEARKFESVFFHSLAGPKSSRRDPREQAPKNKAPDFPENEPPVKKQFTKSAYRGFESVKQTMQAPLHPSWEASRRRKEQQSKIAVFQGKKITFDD

Target	log2 fold change
UniProt Q9CXR1 (peptide sequence: NNLDPDLPYK, peptide start residue: 322)	-0.186
UniProt Q9CZI9 (peptide sequence: AIPFQVAQK, peptide start residue: 170)	-0.434
UniProt Q9CY28 (peptide sequence: CFIADITGSLK, peptide start residue: 275)	0.161
UniProt Q9CY52 (peptide sequence: LPAEMEGEKK, peptide start residue: 256)	-0.0268
UniProt Q9D0C4 (peptide sequence: TSNIDNTYR, peptide start residue: 233)	0.235
UniProt Q9D0K0 (peptide sequence: MYQLESGKLPR, peptide start residue: 111)	0.236
UniProt Q9CWV6 (peptide sequence: IAAEEQTAKR, peptide start residue: 118)	0.272
UniProt Q9CYI0 (peptide sequence: NNMNCEER, peptide start residue: 178)	-0.492
UniProt Q9CXY1 (peptide sequence: LQTEEQAVDSEGDSSLHR, peptide start residue: 4)	-0.13
UniProt Q9CXK9 (peptide sequence: LPQPPDMR, peptide start residue: 1071)	-0.397
UniProt Q9CXA2 (peptide sequence: FALDFGLVPAPPKGAR, peptide start residue: 114)	0.149
UniProt Q9CX00 (peptide sequence: RFEELKK, peptide start residue: 150)	0.165
UniProt Q9CRA9 (peptide sequence: EILQITR, peptide start residue: 216)	-0.176
UniProt Q9CR88 (peptide sequence: HLADHGLLSGVQR, peptide start residue: 113)	-0.353
UniProt Q9CWX9 (peptide sequence: REDAGDDDDKEGAIGVR, peptide start residue: 425)	-0.386
UniProt Q9D0D3 (peptide sequence: SNSPDSSTDTSGKR, peptide start residue: 566)	-0.413
UniProt Q9CRD2 (peptide sequence: ILQEDPTNTAAR, peptide start residue: 113)	-0.282
UniProt Q9CS74 (peptide sequence: CSPHFSDSR, peptide start residue: 315)	-0.292
UniProt Q9CYK1 (peptide sequence: YGEFFPLPK, peptide start residue: 200)	-0.461
UniProt Q9CYU6 (peptide sequence: ASLLPLTEDMK, peptide start residue: 402)	0.0907
UniProt Q9CYF5 (peptide sequence: VLQVSCGR, peptide start residue: 173)	-0.112
UniProt Q9CSB4 (peptide sequence: GPDGSTHNLR, peptide start residue: 1063)	-0.817
UniProt Q9CZ91 (peptide sequence: SALSDDINFEK, peptide start residue: 86)	0.266

Single values from the entries so far.
In log2 fold change, UniProt Q9CX00 (peptide sequence: RFEELKK, peptide start residue: 150) reads 0.165
In log2 fold change, UniProt Q9CSB4 (peptide sequence: GPDGSTHNLR, peptide start residue: 1063) reads -0.817

From the supplement of paper PMC12819154, “High-throughput peptide-centric local stability assay extends protein–ligand identification to membrane proteins, tissues and bacteria” (Nature Structural & Molecular Biology, 2025)
